{
  "source": "patent US8574585B2",
  "about": "“KDR peptides and vaccines comprising the same” (Oncotherapy Science, Inc., priority 2002, dated 2013)",
  "key": {"[1]": {"test_system": "peptide-pulsed TISI cells (HLA-A24/24)", "experiment": "CTL lines induced with peptide-pulsed DCs, four-hour 51Cr release assay", "format": "cell-based, human", "details": "in words", "protocol": "Epstein-Barr virus (EBV)-immortalized B cell lines, TISI (HLA-A24/24) and EHM (HLA-A3/3), were provided by Takara Shuzo Biotechnology Research Laboratory.\nHLA serotyping was performed using 7 mL of peripheral blood collected from a healthy subject. Peripheral blood mononuclear lymphocytes (PBMCs) were isolated from HLA-A24-positive peripheral blood using Ficoll Paque (Pharmacia) specific gravity centrifugation.\nThe obtained PBMCs were left to stand for ten hours in a culture flask (Corning, 43072). After removing the suspended cells, the cells that adhered to the flask were cultured in AIM-V medium (Invitrogen) supplemented with 2% autoserum by adding 1,000 U/mL of human GM-CSF (provided by Kirin Brewery), and 1,000 U/mL of human IL-4 (Genzyme). Five days later, the cells were cultured for another 48 hours in 10 μg/mL of OK-432 (provided by Chugai Pharmaceutical Co., Ltd.), and were used as antigen-presenting cells for CTL induction.\nThe resulting DCs were mixed with CD8-positive cells selected by magnetic beads (Dynabeads M-450 and Detachabeads) from PBMC, at a ratio of 1:20 or 1:2, and then cultured in a 48-well plate (Corning), in the presence of 10 ng/mL of human IL-7 (Genzyme). Three days later, the final concentration of 10 U/mL of IL-2 (Sigma) was added to the culture. And seven and 14 days later, the same DCs were stimulated to induce CTLs, and 20 days later, cytotoxicity was measured for each well using peptide-pulsed TISI cells as targets. Only the positive wells were cultured by a stimulation method with allo-PBMC, EBV-immortalized B cell lines (EHM), and 30 ng/mL of anti-CD3 antibody. CTLs were functionally analyzed 14 days later.\nCytotoxic activity was evaluated by a four-hour ^51Cr release assay. A concentration of 20 μg/mL of the target cells were pulsed with peptides overnight. The target cells were labeled with 100 μCi of Na2^51CrO4 at 37° C. for one hour, and then washed three times with RPMI1640. The target cells (1×10^4/100 μL) and 100 μL of effector cells at various concentrations with a total volume of 200 μL were placed into a U-shaped 96-well microtiter plate (Corning), and cultured at 37° C. in a CO2 incubator for four hours. After culturing, 100 μL of supernatant was collected from each well, and measured using a γ counter. Natural decay was the radioactivity of the target cells and the medium, and maximum decay was the radioactivity of the target cells and 1 M HCl. Cytotoxic activity (percentage of specific lysis) was calculated by the following formula: Cytotoxic activity (% Cytotoxicity)=(Experimental decay−natural decay)/(maximum decay−natural decay)×100"}, "[2]": {"test_system": "Colon 26-inoculated BALB/c mice", "experiment": "In vivo antitumor effect, peptide-pulsed DC vaccination, Colon 26", "parameters": "species or system mouse", "details": "DCs pulsed with the peptide"}, "PBMC of cancer patients": {"test_system": "PBMC of cancer patients", "experiment": "Cancer patient-derived CTL precursor, IFN-γ production of peptide-stimulated PBMC", "format": "cell-based, human", "protocol": "Using the method reported by Maeda, Y. et al., Br. J. Cancer, 87:796-804 (2002), peptide-specific CTLs were detected in PBMC. First, PBMC collected from patients (1×10^5 cells) were incubated with 10 μM of each peptide in a U-shaped bottom 96-well plate comprising 200 μL medium. The medium consisted of 45% RPMI1640 medium, 45% AIM-V medium, 10% FBS, 100 U/mL interleukin-2 (IL-2), and […] MEM non-essential amino acid solution. Every three days, half of the medium was removed and replaced with fresh medium containing the corresponding peptide (20 μM). After incubation for twelve days, cells were collected to test IFN-γ production ability in response to each peptide. When the amount of IFN-γ produced by peptide-stimulated PBMC in response to a corresponding peptide was two times or more than the amount produced in response to the control HIV peptide, that test peptide was deemed positive.\nIn the table, patients A, B, and C are HLA-A24-type patients; and patient D is an HLA-A02-type patient. Patients A and D are colon cancer patients; and patients B and C are melanoma patients. CMVs refer to the cytomegalovirus-derived peptides used as positive controls. The peptides with high A-24 binding affinity are described in Kuzushima, K. et al., Blood 2001, 98(6):p 1872-1881, and such; and the peptides with high A-2 binding affinity are described in Solache, A. et al., J. Immunol. 1999, 163(10); p 5512-5518, and such."}, "cytotoxic T cells (CTL)": {"test_system": "cytotoxic T cells (CTL)", "experiment": "Examination of CTL inducibility of peptides (summary)", "format": "cell-based", "details": "in words", "protocol": "However, it is necessary to determine whether the candidate peptides, which are selected using high binding affinity as an indicator, actually have CTL inducibility or not. Confirmation of CTL inducibility is carried out by inducing antigen-presenting cells comprising human MHC antigens (such as B-lymphocytes, macrophages, and dendritic cells), more specifically dendritic cells derived from human peripheral blood mononuclear leukocytes; stimulating the cells with the peptides; mixing the cells with CD8-positive cells; and then measuring cytotoxicity against the target cells. As the reaction system, transgenic animals generated to express a human HLA antigen may be used (for example, those described in Hum. Immunol. 2000 August; 61(8):764-79 Related Articles, Books, Linkout Induction of CTL response by a minimal epitope vaccine in HLA A*0201/DR1 transgenic mice: dependence on HLA class II restricted T(H) response, BenMohamed, L., Krishnan, R., Longmate, J., Auge, C., Low, L., Primus, J., and Diamond, D. J.). For example, by radiolabeling the target cells with ^51Cr or such, cytotoxicity can be calculated from the radioactivity released from the target cells. Alternatively, the activity can be examined by measuring the IFN-γ produced and released by CTL in the presence of antigen-presenting cells that have immobilized peptides, and visualizing the inhibition zone on the media using anti-IFN-γ monoclonal antibodies.\nFurthermore, nonapeptides selected from peptides comprising the amino acid sequences of […] (SEQ ID NO:2), […]"}},
  "note": "Part of at least one peptide drawing is inferred or uncertain, most often the ends. Some compounds share one wording; it may come from a single statement. Where no end group is shown, it is not given here.",
  "data": [
    {"sequence": "SYMISYAGM [SEQ ID NO:5]", "values": [
      {"measurement": "effectiveness as epitope peptide (CTL line established)", "setting": "[1]", "result": "effective as epitope peptides"},
      {"measurement": "survival of Colon 26-inoculated mice", "setting": "[2]; 35 days after tumor inoculation, nine BALB/c mice", "result": "all of the nine mice survived"},
      {"measurement": "effect on growth of Colon 26-derived tumors", "setting": "[2]; compared to control, FIG. 4", "result": "remarkable suppression effects"},
      {"measurement": "POSITIVE WELLS, PATIENT A", "setting": "PBMC of cancer patients; HLA-A24-type colon cancer patient, IFN-γ two times or more than HIV control peptide", "result": 3},
      {"measurement": "POSITIVE WELLS, PATIENT B", "setting": "PBMC of cancer patients; HLA-A24-type melanoma patient", "result": 1},
      {"measurement": "POSITIVE WELLS, PATIENT C", "setting": "PBMC of cancer patients; HLA-A24-type melanoma patient", "result": 0},
      {"measurement": "CTL inducibility", "setting": "cytotoxic T cells (CTL)", "result": "particularly high CTL inducibility"}
    ]}
  ]
}
